No constants are given. Whether binding was seen depends on the method and setting. Binding seen in cells or lysates may run through a third protein. A yes stands for co-enrichment or nearness to the bait. Other partners may have been found. For part of these data: Where a sequence is shown, tags or fusion partners need not be part of it.
T1: Myc-tagged Fandango (Fandango-6xMyc) (Drosophila melanogaster) (UniProt A1Z9G2)
T1 sequence: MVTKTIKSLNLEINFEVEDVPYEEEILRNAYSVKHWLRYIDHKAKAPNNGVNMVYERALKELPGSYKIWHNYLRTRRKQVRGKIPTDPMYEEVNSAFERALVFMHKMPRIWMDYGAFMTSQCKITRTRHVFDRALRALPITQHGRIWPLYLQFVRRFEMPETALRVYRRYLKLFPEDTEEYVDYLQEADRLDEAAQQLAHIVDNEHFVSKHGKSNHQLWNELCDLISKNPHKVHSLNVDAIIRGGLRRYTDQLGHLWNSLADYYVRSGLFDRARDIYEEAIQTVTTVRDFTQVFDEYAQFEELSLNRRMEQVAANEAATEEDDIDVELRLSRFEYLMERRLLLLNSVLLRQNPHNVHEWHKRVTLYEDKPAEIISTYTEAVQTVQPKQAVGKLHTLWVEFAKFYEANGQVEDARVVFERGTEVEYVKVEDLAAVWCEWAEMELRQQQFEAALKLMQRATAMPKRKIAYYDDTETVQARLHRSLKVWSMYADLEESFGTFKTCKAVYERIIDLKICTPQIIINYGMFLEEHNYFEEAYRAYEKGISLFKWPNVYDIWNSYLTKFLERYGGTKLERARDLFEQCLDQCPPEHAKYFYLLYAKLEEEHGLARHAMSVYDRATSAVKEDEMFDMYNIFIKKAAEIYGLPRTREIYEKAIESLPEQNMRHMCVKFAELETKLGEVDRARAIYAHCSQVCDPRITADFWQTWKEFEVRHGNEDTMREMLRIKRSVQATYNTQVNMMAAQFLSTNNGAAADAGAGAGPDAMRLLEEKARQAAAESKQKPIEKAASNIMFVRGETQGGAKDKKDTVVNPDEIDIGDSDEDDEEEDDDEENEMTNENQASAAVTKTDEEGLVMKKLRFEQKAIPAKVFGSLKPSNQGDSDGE

Chains of the proteins cited; added tags and fusions are not shown. Lines headed by an entry give the natural chain unless they say otherwise; changes in a name come on top.
UniProt Q7KLW9: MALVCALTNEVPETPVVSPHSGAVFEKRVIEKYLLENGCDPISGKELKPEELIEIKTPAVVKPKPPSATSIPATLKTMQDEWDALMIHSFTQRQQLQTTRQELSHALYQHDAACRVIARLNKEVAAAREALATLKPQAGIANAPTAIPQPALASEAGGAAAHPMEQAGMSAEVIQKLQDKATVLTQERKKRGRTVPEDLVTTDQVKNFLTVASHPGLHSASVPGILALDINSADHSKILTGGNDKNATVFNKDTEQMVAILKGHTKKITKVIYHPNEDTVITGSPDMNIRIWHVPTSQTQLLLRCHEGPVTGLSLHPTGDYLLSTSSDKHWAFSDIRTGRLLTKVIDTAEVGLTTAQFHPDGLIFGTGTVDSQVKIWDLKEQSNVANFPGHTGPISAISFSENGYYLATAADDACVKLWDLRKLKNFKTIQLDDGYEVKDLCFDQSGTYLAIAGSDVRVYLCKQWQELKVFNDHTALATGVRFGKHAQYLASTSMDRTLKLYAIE
UniProt Q9W0R0: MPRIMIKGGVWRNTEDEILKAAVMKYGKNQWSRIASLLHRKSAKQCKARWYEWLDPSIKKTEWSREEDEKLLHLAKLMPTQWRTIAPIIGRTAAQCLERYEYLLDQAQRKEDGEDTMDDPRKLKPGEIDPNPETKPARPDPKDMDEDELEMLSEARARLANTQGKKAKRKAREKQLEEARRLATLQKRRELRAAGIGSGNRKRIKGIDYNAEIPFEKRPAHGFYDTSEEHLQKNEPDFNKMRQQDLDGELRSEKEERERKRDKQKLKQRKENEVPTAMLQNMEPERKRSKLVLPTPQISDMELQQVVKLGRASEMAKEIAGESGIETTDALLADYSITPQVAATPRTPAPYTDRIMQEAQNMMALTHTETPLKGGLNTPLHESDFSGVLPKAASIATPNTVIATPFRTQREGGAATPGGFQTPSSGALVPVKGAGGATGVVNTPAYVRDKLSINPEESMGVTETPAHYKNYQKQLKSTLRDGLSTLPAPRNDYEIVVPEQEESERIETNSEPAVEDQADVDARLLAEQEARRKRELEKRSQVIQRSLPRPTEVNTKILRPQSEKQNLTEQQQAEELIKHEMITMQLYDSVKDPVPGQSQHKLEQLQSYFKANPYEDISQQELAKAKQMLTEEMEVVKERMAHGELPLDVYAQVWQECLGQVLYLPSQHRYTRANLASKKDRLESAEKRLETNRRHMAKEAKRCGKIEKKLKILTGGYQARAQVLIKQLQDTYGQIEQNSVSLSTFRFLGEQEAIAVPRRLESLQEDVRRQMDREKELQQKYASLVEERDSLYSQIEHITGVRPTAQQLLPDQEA
UniProt Q9VAY6: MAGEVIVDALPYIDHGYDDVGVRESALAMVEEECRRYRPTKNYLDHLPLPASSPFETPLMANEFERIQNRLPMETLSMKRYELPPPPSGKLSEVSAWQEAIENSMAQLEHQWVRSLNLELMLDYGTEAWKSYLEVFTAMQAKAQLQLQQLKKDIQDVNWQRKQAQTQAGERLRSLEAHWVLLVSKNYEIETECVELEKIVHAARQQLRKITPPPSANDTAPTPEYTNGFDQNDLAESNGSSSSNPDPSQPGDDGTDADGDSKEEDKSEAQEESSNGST
UniProt Q7KTP9: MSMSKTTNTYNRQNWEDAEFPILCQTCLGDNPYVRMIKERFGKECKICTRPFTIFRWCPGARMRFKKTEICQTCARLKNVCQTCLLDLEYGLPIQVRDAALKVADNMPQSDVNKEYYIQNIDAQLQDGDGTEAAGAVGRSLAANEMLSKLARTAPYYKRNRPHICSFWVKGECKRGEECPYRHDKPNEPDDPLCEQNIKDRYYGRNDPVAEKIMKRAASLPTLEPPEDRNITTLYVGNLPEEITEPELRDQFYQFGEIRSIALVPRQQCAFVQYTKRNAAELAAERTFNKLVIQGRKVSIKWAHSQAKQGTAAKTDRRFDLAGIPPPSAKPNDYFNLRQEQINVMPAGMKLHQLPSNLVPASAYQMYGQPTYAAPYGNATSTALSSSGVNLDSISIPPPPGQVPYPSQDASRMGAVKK
UniProt Q9VYQ9: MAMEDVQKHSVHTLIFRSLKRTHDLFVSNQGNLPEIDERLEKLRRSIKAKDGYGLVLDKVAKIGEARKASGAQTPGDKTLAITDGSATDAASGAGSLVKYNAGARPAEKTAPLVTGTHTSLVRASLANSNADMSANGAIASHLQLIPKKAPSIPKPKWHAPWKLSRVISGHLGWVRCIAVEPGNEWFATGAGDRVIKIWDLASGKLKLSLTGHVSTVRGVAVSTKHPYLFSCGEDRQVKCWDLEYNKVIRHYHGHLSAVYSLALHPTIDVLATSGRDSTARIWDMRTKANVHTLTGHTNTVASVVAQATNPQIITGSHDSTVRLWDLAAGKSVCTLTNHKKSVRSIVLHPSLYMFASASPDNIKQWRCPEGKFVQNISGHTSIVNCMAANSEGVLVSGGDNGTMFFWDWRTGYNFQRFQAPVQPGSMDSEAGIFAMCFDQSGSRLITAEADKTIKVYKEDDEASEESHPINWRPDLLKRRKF
UniProt Q9V3G3: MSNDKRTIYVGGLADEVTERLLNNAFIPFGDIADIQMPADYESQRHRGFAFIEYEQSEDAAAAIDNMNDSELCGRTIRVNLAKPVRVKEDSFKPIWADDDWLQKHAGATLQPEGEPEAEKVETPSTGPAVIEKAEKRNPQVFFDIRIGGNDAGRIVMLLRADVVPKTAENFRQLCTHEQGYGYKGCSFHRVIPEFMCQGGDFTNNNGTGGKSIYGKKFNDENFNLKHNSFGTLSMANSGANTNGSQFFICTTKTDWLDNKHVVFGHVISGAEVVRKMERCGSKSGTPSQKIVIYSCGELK
UniProt Q9W0Q2: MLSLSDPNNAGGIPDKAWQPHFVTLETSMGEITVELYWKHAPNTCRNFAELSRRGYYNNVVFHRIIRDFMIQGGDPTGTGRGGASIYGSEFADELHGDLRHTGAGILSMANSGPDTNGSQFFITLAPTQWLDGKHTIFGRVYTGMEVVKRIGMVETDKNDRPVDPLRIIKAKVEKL


What was measured:
[1] = target: T1, Myc-tagged Fandango (Fandango-6xMyc) (Drosophila melanogaster); experiment: affinity purification with mass spectrometry; total protein extracts of embryos expressing the Myc-tagged bait; 1 mg protein in NB buffer (150 mM NaCl, 50 mM Tris-HCl pH 7,5, 2 mM EDTA, 0,1% NP-40, 1 mM DTT, 10 mM NaF), mouse c-Myc antibody 9E10, Dynabeads Protein G, 4°C; LC-MS-MS/MS; two replicas
[2] = target: T1, Myc-tagged Fandango (Fandango-6xMyc) (Drosophila melanogaster); experiment: affinity purification with mass spectrometry; total protein extracts of ovaries expressing the Myc-tagged bait; 1 mg protein in NB buffer (150 mM NaCl, 50 mM Tris-HCl pH 7,5, 2 mM EDTA, 0,1% NP-40, 1 mM DTT, 10 mM NaF), mouse c-Myc antibody 9E10, Dynabeads Protein G, 4°C; LC-MS-MS/MS; two replicas
[3] = target: Myc-tagged Prp19 (Prp19-6xMyc) (Drosophila melanogaster) (UniProt Q7KLW9); experiment: affinity purification with mass spectrometry; total protein extracts of embryos expressing the Myc-tagged bait; 1 mg protein in NB buffer (150 mM NaCl, 50 mM Tris-HCl pH 7,5, 2 mM EDTA, 0,1% NP-40, 1 mM DTT, 10 mM NaF), mouse c-Myc antibody 9E10, Dynabeads Protein G, 4°C; LC-MS-MS/MS; two replicas

binding [1] | binding [2] | binding [3] | Molecule
binds | binds | – | CDC5L (CG6905, cdc5-like) (from UniProt Q9W0R0)
– | binds | binds | CG4980 (from UniProt Q9VAY6)
binds | binds | binds | CG14641 (from UniProt Q7KTP9)
binds | binds | – | CG31368
binds | binds | – | ISY1 (CG9667)
binds | binds | – | Prp19 (CG5519) (from UniProt Q7KLW9 1-505)
binds | binds | binds | Tango4 (CG1796) (from UniProt Q9VYQ9)
binds | binds | binds | cyp33 (CG4886) (from UniProt Q9V3G3 1-300)
binds | – | – | cypl (CG13892) (from UniProt Q9W0Q2)
– | binds | binds | Crn (CG3193) (protein, UniProt P17886 1-702) MERPQKMPKVAKVKNKAPAEVQITAEQLLREAKERDLEILPPPPKQKISDPAELADYQQRKRKTFEDNLRKNRMVVSHWIKYAQWEEQQQEIQRARSIWERALDNEHRNVTLWLKYAEMEMKNKQVNHARNLWDRAVTIMPRVNQFWYKYTYMEEMLENVAGARQVFERWMEWQPEEQAWQTYVNFELRYKEIDRAREIYERFVYVHPDVKNWIKFARFEESHGFIHGSRRVFERAVEFFGDDYIEERLFIAFARFEEGQKEHDRARIIYKYALDHLPKDRTQELFKAYTKHEKKYGDRAGIEDVIVSKRKYQYEQEVAANPTNYDAWFDYLRLIEAEGDRDQIRETYERAISNVPPANEKNFWRRYIYLWINYALYEELEAEDAERTRQIYKTCLELIPHKQFTFSKLWLLYAQFEIRCKELQRARKALGLAIGMCPRDKLFRGYIDLEIQLREFERCRMLYEKFLEFGPENCVTWMKFAELENLLGDTDRARAIFELAVQQPRLDMPELLWKAYIDFEVALGETELARQLYERLLERTQHVKVWMSFAKFEMGLSHGDSGPDAELNVQLARRIYERANEMLRQLGDKESRVLLLEAWRDFERDASDSQEMQKVMDKMPRRIKKRQKIVSDNGVEEGWEEVFDYIFPEDEMARPNLKLLAAAKMWKTQKDNTVDDPPATAIASEPEPAADAAPADTTDSGD
– | – | binds | Fandango (CG6197) (protein, UniProt A1Z9G2 1-883) MVTKTIKSLNLEINFEVEDVPYEEEILRNAYSVKHWLRYIDHKAKAPNNGVNMVYERALKELPGSYKIWHNYLRTRRKQVRGKIPTDPMYEEVNSAFERALVFMHKMPRIWMDYGAFMTSQCKITRTRHVFDRALRALPITQHGRIWPLYLQFVRRFEMPETALRVYRRYLKLFPEDTEEYVDYLQEADRLDEAAQQLAHIVDNEHFVSKHGKSNHQLWNELCDLISKNPHKVHSLNVDAIIRGGLRRYTDQLGHLWNSLADYYVRSGLFDRARDIYEEAIQTVTTVRDFTQVFDEYAQFEELSLNRRMEQVAANEAATEEDDIDVELRLSRFEYLMERRLLLLNSVLLRQNPHNVHEWHKRVTLYEDKPAEIISTYTEAVQTVQPKQAVGKLHTLWVEFAKFYEANGQVEDARVVFERGTEVEYVKVEDLAAVWCEWAEMELRQQQFEAALKLMQRATAMPKRKIAYYDDTETVQARLHRSLKVWSMYADLEESFGTFKTCKAVYERIIDLKICTPQIIINYGMFLEEHNYFEEAYRAYEKGISLFKWPNVYDIWNSYLTKFLERYGGTKLERARDLFEQCLDQCPPEHAKYFYLLYAKLEEEHGLARHAMSVYDRATSAVKEDEMFDMYNIFIKKAAEIYGLPRTREIYEKAIESLPEQNMRHMCVKFAELETKLGEVDRARAIYAHCSQVCDPRITADFWQTWKEFEVRHGNEDTMREMLRIKRSVQATYNTQVNMMAAQFLSTNNGAAADAGAGAGPDAMRLLEEKARQAAAESKQKPIEKAASNIMFVRGETQGGAKDKKDTVVNPDEIDIGDSDEDDEEEDDDEENEMTNENQASAAVTKTDEEGLVMKKLRFEQKAIPAKVFGSLKPSNQGDSDGE
– | binds | – | c12.1 (CG12135) (protein, UniProt Q9V3B6 1-259) MTTAARPTFDPARGGSGRGEKDLSALSKQYSSRDLPGHTKLKYRETGQGTSDENRNRDFRKELEEREREARSGTGATSSSSGKALPSIVRKAIEANNAGGGSSAAKRSKPDAGQQQAQQAAQQQAANMDADEPLDNDSSDSDSDSDDDDAALLAELQKIKQERLQETARRESEKKQEDERIRMENILSGNPLMNYEPGTAASAAGRASGLGGDLKIKRRWDDDVVFKNCARSAPDKKTHFVNDALRSDFHKKFMDKYIK
binds | binds | binds | Bx42 (CG8264) (protein, UniProt P39736 1-547) MSLSSLLPTPTNAIWDREDERRLVARGAPKIGALVSAKIAAPPYGQRKDWVPHTDADFGDGGAFPEIHVAQYPLGLGAPGNVGKKSDALAVRLDDKGKVKYDAIARQGHGKDKIVYSSISQLLPAEVLAEDADELQRPDEETVMETTEETRLALEKLTNQKITSALPVRHAQKAGPAQYIRYTPSQQGDTFNSGAKQRVIRMVEAQLDPMEPPKFRINKKIPRGPPSPPAPVLHSPSRKVTVKEQKEWKIPPCISNWKNAKGYTIPLDKRLAADGRGLQQVHINEKFAKMAEALYIADRKAREAVEARSQLEKKLAQKEKEKKEDMLRMMAQRAREERAGLRNPEAAEPSGSGATGSEVRERNDLRAERQRERQRDRNLQRAAPEKRSKLQKERERDISEQIALGLPAKSAGNGETLFDQRLFNTTKGMDSGYGDDEAYNVYDKPWRDSNTLGAHIYRPSKQADSDNYGGDLDAIVNTKRFVPDKQFSGASKEAAAGQRSGPVEFEKEEDPFGLDQFLNMAKKAPKRAEEKNNERSSHSDRKRSKRD
